The record followed here is publication PMC9388863, “Congeners-Specific Intestinal Absorption Of Microcystins In An In Vitro 3D Human Intestinal Epithelium: The Role Of Influx/Efflux Transporters” (Frontiers in Toxicology, 2022).

Protein sequences, listed by entry. Tags and fused reporters are not part of them. Lines headed by an entry give the natural chain unless they say otherwise; changes in a name come on top.
UniProt O94956: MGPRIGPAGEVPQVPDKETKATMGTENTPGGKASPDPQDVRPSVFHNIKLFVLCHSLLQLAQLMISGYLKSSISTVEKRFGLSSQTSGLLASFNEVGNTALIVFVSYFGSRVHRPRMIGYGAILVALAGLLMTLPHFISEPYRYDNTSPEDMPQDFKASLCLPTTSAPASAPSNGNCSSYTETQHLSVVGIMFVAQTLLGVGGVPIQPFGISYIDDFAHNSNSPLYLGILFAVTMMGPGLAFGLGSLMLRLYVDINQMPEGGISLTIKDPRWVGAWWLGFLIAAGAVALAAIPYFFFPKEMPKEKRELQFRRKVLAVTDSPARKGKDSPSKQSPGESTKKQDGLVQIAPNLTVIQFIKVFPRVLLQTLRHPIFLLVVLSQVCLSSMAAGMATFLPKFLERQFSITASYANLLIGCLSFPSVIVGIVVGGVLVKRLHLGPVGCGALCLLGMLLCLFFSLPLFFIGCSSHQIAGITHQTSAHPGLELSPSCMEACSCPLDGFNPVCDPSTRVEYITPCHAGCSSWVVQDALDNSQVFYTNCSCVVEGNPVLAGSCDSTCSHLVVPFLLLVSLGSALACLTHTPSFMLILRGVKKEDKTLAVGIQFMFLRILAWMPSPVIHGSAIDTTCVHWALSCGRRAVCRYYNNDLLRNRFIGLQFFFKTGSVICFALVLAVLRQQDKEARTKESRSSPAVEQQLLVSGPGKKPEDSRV
UniProt Q92887: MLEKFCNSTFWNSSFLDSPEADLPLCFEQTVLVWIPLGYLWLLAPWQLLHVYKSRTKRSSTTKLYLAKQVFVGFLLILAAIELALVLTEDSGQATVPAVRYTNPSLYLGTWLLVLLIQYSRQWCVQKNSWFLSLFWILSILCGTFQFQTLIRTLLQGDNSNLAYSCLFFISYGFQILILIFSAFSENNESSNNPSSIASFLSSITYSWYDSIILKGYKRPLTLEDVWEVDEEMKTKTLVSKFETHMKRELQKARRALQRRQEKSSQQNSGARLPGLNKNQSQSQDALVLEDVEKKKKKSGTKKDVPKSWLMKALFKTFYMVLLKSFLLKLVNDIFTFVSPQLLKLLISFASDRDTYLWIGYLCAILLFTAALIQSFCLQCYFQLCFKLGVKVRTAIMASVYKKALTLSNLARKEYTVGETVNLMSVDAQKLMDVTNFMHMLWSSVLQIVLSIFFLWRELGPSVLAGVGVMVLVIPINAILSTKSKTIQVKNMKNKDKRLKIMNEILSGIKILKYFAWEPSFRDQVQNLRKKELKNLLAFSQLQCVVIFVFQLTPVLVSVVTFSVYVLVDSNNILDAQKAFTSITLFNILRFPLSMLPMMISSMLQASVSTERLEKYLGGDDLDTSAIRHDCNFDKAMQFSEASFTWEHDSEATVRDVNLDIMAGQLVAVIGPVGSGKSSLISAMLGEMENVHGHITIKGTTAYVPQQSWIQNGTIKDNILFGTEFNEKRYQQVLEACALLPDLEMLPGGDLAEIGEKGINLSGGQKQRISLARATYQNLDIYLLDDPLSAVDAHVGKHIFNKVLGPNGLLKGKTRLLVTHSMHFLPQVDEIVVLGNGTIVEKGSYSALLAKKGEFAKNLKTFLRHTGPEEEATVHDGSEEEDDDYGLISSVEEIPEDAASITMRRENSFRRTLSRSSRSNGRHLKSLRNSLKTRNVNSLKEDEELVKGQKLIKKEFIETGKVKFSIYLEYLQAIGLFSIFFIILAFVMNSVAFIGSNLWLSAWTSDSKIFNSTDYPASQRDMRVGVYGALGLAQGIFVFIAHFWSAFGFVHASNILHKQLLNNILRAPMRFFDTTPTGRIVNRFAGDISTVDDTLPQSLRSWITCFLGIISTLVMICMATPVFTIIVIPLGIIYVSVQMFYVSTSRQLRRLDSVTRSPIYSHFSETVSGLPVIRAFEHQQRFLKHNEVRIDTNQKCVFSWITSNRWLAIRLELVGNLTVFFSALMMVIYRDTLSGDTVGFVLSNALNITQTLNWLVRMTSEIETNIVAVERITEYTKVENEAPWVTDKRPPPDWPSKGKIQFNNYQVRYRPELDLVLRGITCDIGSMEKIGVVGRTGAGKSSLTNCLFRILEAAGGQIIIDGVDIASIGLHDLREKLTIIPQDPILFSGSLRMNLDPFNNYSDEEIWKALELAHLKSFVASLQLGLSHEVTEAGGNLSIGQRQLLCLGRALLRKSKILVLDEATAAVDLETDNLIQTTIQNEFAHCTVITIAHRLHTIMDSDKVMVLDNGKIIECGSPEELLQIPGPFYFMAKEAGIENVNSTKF

One series addresses OATP 2B1 (Homo sapiens, UniProt O94956).
For the next series, the target named is MRP2 (Homo sapiens, UniProt Q92887).

Molecules are shown by their SMILES.

In the case of `CC(C)c1c(C(=O)Nc2ccccc2)c(-c2ccccc2)c(-c2ccc(F)cc2)n1CC[C@@H](O)C[C@@H](O)CC(=O)O` [Atorvastatin, reference compound], at OATP 2B1, the “effect of cyclosporin on probe substrate absorption” value was “increase in the absorption”. Further, the “effect of benzbromarone on probe substrate recovered at the BL compartment” value at MRP2 is listed as “increase in the amount of substrates recovered at the BL compartment”.
